Data: publication PMC11237066
No constants are given. Whether binding was seen depends on the method and setting. Some binding calls cover weakened binding; strength is not graded here. Sequences can lack the tags named with a protein.

T1: Saccharomyces cerevisiae Mre11, his-tagged (S. cerevisiae) (UniProt P32829)
T1 sequence: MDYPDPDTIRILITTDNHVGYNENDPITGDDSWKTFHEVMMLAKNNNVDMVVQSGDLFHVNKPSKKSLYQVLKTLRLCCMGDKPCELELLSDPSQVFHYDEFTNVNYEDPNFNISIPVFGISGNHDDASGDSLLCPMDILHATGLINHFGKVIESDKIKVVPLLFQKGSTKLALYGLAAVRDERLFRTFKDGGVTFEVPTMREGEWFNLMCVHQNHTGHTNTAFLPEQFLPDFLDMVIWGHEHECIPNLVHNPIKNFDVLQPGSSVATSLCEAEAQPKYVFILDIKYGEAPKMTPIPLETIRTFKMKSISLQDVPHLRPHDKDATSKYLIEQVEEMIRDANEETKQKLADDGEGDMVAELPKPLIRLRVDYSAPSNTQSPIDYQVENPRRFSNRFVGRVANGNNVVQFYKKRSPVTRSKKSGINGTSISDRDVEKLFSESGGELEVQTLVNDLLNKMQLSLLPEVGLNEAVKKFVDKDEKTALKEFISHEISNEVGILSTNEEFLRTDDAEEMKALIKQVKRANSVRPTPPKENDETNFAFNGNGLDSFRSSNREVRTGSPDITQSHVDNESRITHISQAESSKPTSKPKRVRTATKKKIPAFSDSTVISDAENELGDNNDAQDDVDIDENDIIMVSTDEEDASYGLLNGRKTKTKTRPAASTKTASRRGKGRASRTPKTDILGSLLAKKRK


Columns and labels:
[1] = target: T1, Saccharomyces cerevisiae Mre11, his-tagged (S. cerevisiae); assay: co-purification by affinity and ion exchange chromatography; MR co-expressed in Sf9 without Xrs2; NiNTA (his-Mre11), then HiTrap SP HP and HiTrap Q HP
[2] = target: T1, Saccharomyces cerevisiae Mre11, his-tagged (S. cerevisiae); assay: co-purification by sequential affinity chromatography; MRX co-expressed in Sf9; sequential NiNTA (his-Mre11) and FLAG (Xrs2-FLAG) affinity purification

binding [1]	binding [2]	Binder
binds	binds	Saccharomyces cerevisiae Rad50, untagged (protein, UniProt P12753 1-1312) MSAIYKLSIQGIRSFDSNDRETIEFGKPLTLIVGMNGSGKTTIIECLKYATTGDLPPNSKGGVFIHDPKITGEKDIRAQVKLAFTSANGLNMIVTRNIQLLMKKTTTTFKTLEGQLVAINNSGDRSTLSTRSLELDAQVPLYLGVPKAILEYVIFCHQEDSLWPLSEPSNLKKKFDEIFQAMKFTKALDNLKSIKKDMSVDIKLLKQSVEHLKLDKDRSKAMKLNIHQLQTKIDQYNEEVSEIESQLNEITEKSDKLFKSNQDFQKILSKVENLKNTKLSISDQVKRLSNSIDILDLSKPDLQNLLANFSKVLMDKNNQLRDLETDISSLKDRQSSLQSLSNSLIRRQGELEAGKETYEKNRNHLSSLKEAFQHKFQGLSNIENSDMAQVNHEMSQFKAFISQDLTDTIDQFAKDIQLKETNLSDLIKSITVDSQNLEYNKKDRSKLIHDSEELAEKLKSFKSLSTQDSLNHELENLKTYKEKLQSWESENIIPKLNQKIEEKNNEMIILENQIEKFQDRIMKTNQQADLYAKLGLIKKSINTKLDELQKITEKLQNDSRIRQVFPLTQEFQRADLEMDFQKLFINMQKNIAINNKKMHELDRRYTNALYNLNTIEKDLQDNQKSKEKVIQLLSENLPEDCTIDEYNDVLEETELSYKTALENLKMHQTTLEFNRKALEIAERDSCCYLCSRKFENESFKSKLLQELKTKTDANFEKTLKDTVQNEKEYLHSLRLLEKHIITLNSINEKIDNSQKCLEKAKEETKTSKSKLDELEVDSTKLKDEKELAESEIRPLIEKFTYLEKELKDLENSSKTISEELSIYNTSEDGIQTVDELRDQQRKMNDSLRELRKTISDLQMEKDEKVRENSRMINLIKEKELTVSEIESSLTQKQNIDDSIRSKRENINDIDSRVKELEARIISLKNKKDEAQSVLDKVKNERDIQVRNKQKTVADINRLIDRFQTIYNEVVDFEAKGFDELQTTIKELELNKAQMLELKEQLDLKSNEVNEEKRKLADSNNEEKNLKQNLELIELKSQLQHIESEISRLDVQNAEAERDKYQEESLRLRTRFEKLSSENAGKLGEMKQLQNQIDSLTHQLRTDYKDIEKNYHKEWVELQTRSFVTDDIDVYSKALDSAIMKYHGLKMQDINRIIDELWKRTYSGTDIDTIKIRSDEVSSTVKGKSYNYRVVMYKQDVELDMRGRCSAGQKVLASIIIRLALSETFGANCGVIALDEPTTNLDEENIESLAKSLHNIINMRRHQKNFQLIVITHDEKFLGHMNAAAFTDHFFKVKRDDRQKSQIEWVDINRVTY
–	binds	Saccharomyces cerevisiae Xrs2-FLAG (protein, UniProt P33301 1-854) MWVVRYQNTLEDGSISFISCCLQAFKTYSIGRSSKNPLIIKNDKSISRQHITFKWEINNSSDLKHSSLCLVNKGKLTSLNKKFMKVGETFTINASDVLKSTIIELGTTPIRIEFEWINEVWNIPPHLTQFRTMLSEYGISTEISINDIPANLMISDYPKSEDNSIRELYALVSTIPMKKSRFLMELCNTLLPTSKTNLKFDEMWNDMISNPEYNVFDFDPNILLSKFMRLNNIRVLTTIKSEPRLSSLLRTFNINLFAFDNIDSLYKYVDSLEASTEYLILTTTDKKENGKILCTIKTMLTSIIDGTLSAVINMKGASSRTLDNGKFDQISEGMSTILKTSRAPEVEASPVVSKKRKLNRRRVLPLDSLDFFAGGLSTKTLSENRSLTDAKRLNCGAESKTVISSPNIAEADEKHAPFLQNALKPTEDIGKKSGHSSPGAIIVSSPNLGTVNTSEDSLDKSLQSHKLPQPSLPEVAGIGSQTISSNSADYETAAVNSMDDAEVTKNFRVNHHQNIEQPSKNIRKLSNYSREISSPLQENCKSPVKELSIKEKSGTPHAFVEAIQETKNREVKRVKSTIVELKDEELSEEAINQLKNLAIVEPSNNLLRKSFDSEGNKTSRTTEKWENSLMEPEWHKRKNFKTFVKVRPKSKAHKEEGKNNTQSSDFIRNAAFLITRNYVPLKKYSKKDTTTKWGTEENEDMFALTEMERFGSNTFMSDNINSNTIQKRSQALNRFTNEDSSNEGEEDSFSFSRCSGTAASVQPLKNKIFITDEDDLGDIDDKSDRLNHRENNRNLFVVKEMNLRPNLSEECSKQSRHSRSATSRSRGSFGASNNGDGDDDDDDGPKFTFKRRKG
